Experimental data reported in PubChem BioAssay AID743255 (National Center for Advancing Translational Sciences (NCATS), 2014).
The whole screen tested about 390,000 compounds, of which about 910 (0.23%) were called active. Inconclusive means that the source gave no clear call. Such entries were picked first, then a sample of the others. Calls come from the whole dose curve; as a rule, active = well fitted inhibition curve with a large enough effect; inconclusive = small, poorly fitted or top-dose-only effect; inactive = no such curve, though single readings can be large or run the other way. Potencies of inconclusive entries are doubtful fits and often do not repeat.

Amino acid sequences for entries named in this document (tags omitted). A change or cut given only in a name is not applied to a line headed by its entry.
UniProt O94782: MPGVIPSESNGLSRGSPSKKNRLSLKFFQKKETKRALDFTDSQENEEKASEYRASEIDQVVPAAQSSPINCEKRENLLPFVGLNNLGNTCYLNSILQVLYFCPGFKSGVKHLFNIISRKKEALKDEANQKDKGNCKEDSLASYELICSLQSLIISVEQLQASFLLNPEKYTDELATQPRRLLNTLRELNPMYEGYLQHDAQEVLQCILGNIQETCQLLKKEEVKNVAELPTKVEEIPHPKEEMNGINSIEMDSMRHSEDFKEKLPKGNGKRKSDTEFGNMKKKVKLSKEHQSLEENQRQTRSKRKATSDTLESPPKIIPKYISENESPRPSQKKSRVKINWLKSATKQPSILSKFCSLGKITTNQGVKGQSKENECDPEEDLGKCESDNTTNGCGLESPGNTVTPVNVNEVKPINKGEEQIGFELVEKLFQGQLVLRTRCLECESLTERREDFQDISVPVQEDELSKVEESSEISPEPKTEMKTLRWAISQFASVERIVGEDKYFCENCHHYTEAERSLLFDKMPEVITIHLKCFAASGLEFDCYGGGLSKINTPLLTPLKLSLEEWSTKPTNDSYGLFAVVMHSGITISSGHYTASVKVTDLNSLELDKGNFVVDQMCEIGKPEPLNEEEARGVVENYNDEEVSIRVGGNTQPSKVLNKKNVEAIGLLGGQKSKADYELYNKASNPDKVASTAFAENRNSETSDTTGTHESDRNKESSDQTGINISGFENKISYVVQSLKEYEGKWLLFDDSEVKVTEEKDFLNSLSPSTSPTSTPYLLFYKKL

target: Ubiquitin carboxyl-terminal hydrolase 1 (Homo sapiens) (UniProt O94782); experiment: Inhibitors of USP1/UAF1: Primary Screen; conditions: recombinant USP1/UAF1, Ub-Rhodamine cleavage fluorescence; activity change, negative = inhibition: at 57.1 µM (top of the series); note: nearly all actives have a fitted effect of over 60% in size
How it was run: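 Step one: compound is pinned into 1nM USP1/UAF1 in HEPES pH 7.8 buffer with TCEP. Step two: 15 min room-temperature incubation. Step three: Ub-Rho (150nM final) starts cleavage, tracked by fluorescence over six one-minute reads.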
% is set by controls: 0 for no effect and ±100 for the full control effect; potency is the fitted concentration of half-maximal effect.

Compound | Potency | activity change, negative = inhibition
C=CS(=O)c1sc(Cl)c(N2CCOCC2)c1[N+](=O)[O-] (stereo not drawn) | inconclusive: 15.8 µM [inhibitor, partial curve] | –
OCCCn1c(CCCNc2nc(-c3cccc(Br)c3)cs2)nc2cc(Cl)c(N3CCCCC3)cc21 | inconclusive: 70.8 µM [inhibitor, partial curve, poor fit] | –
COc1ccccc1NS(=O)(=O)c1ccccc1C#N | inconclusive: 2.82 µM [inhibitor, partial curve] | –
CCCCCCCCCCCCCCCC[N+](C)(C)CC | inconclusive: 39.8 µM [inhibitor, partial curve, poor fit] | –
CCOc1cc(N2CCOCC2)c(OCC)cc1NC(=O)c1c(C)noc1C | inconclusive: 25.1 µM [inhibitor, partial curve] | –
C[C@H](CO)N1C[C@H](C)[C@@H](CN(C)Cc2ccc(Cl)c(Cl)c2)Oc2c(NC(=O)CCC(F)(F)F)cccc2C1=O | – | inactive: -20.7%
CCc1c(C)sc2c1CCN(C(=O)Nc1ccccc1Cl)C2c1ccc(OC)cc1 (stereo not drawn) | inconclusive: 28.2 µM [inhibitor, partial curve] | –
CC(C)CCNC(=O)c1c[nH]c2ccc(S(=O)(=O)Nc3cccc(C(F)(F)F)c3)cc2c1=O | – | inactive: 4.63%
Cc1cc(C)n(CC(=O)NNC(=O)c2cncc(Br)c2)n1 | inconclusive: 7.08 µM [inhibitor, partial curve] | –
CC1=CC(=NOC(=O)/C=C/c2ccccc2)C=C(C)C1=O | – | inactive: -11%
CCc1ccc(NC(=O)Cn2cnc3nc4c(cc3c2=O)CCCC4)cc1 | inconclusive: 5.62 µM [inhibitor, single point] | –
COc1ccccc1C(=O)Nc1ccc2c(c1)nc1n2CCSC1 | inconclusive: 31.6 µM [inhibitor, single point] | –
O=C1OCCN1C(=O)[C@H]1[C@H](c2ccccc2)C(c2ccc(F)cc2)=NN1c1ccccc1 | inconclusive: 44.7 µM [inhibitor, partial curve] | –
Cc1cc(OCCCCCN2CCCC2)ccc1Cl | – | inactive: -0.65%
O=C(CSc1ncc(-c2ccccc2)[nH]1)Nc1ccccc1F | – | inactive: -9.89%
Cc1ccc(-n2nc(C(=O)NC(C)C)c(=O)n(C)c2=O)cc1 | – | inactive: -16.5%
COc1cc(/C=N/NC(=O)c2cc(C)oc2C)ccc1OCc1ccccc1 | inconclusive: 1 µM [inhibitor, full curve, poor fit] | –
O=C(c1ccc(-c2cccc(C(F)(F)F)c2)o1)N1CCCCCCC1 | – | inactive: -25.7%
Cc1ccc(-c2nn3c(=O)c(C)nnc3s2)cc1 | inconclusive: 6.31 µM [inhibitor, single point] | –
COc1cccc(CNC(=O)C(Cc2ccccc2)NS(=O)(=O)c2ccc3c(c2)CCN3C(C)=O)c1 (stereo not drawn) | inconclusive: 14.1 µM [inhibitor, partial curve] | –
O=C(c1ccccc1F)N1CCN(c2ccc([N+](=O)[O-])c(NCC3CCCO3)c2)CC1 (stereo not drawn) | – | inactive: -9.67%

Compound | Potency | activity change, negative = inhibition
Cc1ccc(-c2noc(-c3nnn(CC(=O)Nc4ccc(C)cc4Cl)c3N)n2)cc1 | – | inactive: -16%
CC(C)(C)C(=O)Cn1c(=O)n(CCCCCC(=O)NCc2ccccc2Cl)c(=O)c2sccc21 | inconclusive: 89.1 µM [inhibitor, partial curve, poor fit] | –
COC(=O)c1cc(NC(=O)c2cccc(C(F)(F)F)c2)c(=O)oc1C | inconclusive: 39.8 µM [inhibitor, partial curve, poor fit] | –
N#C/C(=C\c1ccc(N2CCCCC2)o1)C(N)=O | inconclusive: 56.2 µM [inhibitor, partial curve, poor fit] | –
COCC(C)NC(=O)C1CC(=O)N(CCc2ccc(F)cc2)C1 (stereo not drawn) | inconclusive: 0.126 µM [inhibitor, full curve, poor fit] | –
Cc1cccc(-c2nc(C#N)c(NC3CCCCC3)o2)c1 | inconclusive: 3.16 µM [inhibitor, full curve, poor fit] | –
Cc1ccc(CCNC(=O)C(C)n2nc(C)c3c(C)n(-c4ccc(C)cc4)nc3c2=O)cc1 (stereo not drawn) | inconclusive: 3.98 µM [inhibitor, partial curve] | –
Cc1cc(/C=C2\SC(=S)N(Cc3ccco3)C2=O)c(C)n1-c1ccccc1 | inconclusive: 31.6 µM [inhibitor, partial curve] | –
COc1ccc(C(=O)C(C)OC(=O)c2cccc(S(=O)(=O)Nc3c(C)n(C)n(-c4ccccc4)c3=O)c2)cc1 (stereo not drawn) | inconclusive: 6.31 µM [inhibitor, full curve, poor fit] | –
COc1ccc(CCNC(=O)c2nc(SCc3ccc(F)cc3)ncc2Cl)cc1OC | – | inactive: 4.08%
COc1ncccc1C(=O)NC1CCCc2c1cnn2-c1cc(C)cc(C)c1 (stereo not drawn) | – | inactive: -24.3%
Cc1ccc(OCCOC(=O)c2c(-c3ccccc3)noc2C)cc1 | inconclusive: 5.01 µM [inhibitor, partial curve] | –
Cc1ccc(C)c(NC(=O)CSc2nnc(NC(=O)Nc3ccccc3)s2)c1 | inconclusive: 12.6 µM [inhibitor, partial curve, poor fit] | –
CC(C)CC(NS(=O)(=O)c1ccccc1S(=O)(=O)NC(CC(C)C)C(=O)O)C(=O)O (stereo not drawn) | inconclusive: 44.7 µM [inhibitor, partial curve, poor fit] | –
Cc1nc2c(-c3ccccc3)c(C)[nH]n2c(=O)c1Cc1ccc(Br)cc1 | inconclusive: 12.6 µM [inhibitor, partial curve] | –
Cc1cccc(C(=O)Nc2ccc(C(=O)c3ccccc3)cc2)c1 | – | inactive: -16.4%
O=C(O)c1cccc(-n2cccc2/C=C2/NC(=O)N(c3ccc(Cl)cc3)C2=O)c1 | inconclusive: 25.1 µM [inhibitor, partial curve, poor fit] | –
COc1cc(C(C)=O)ccc1OCC(O)CN1CCN(c2ccc(C)cc2C)CC1 (stereo not drawn) | – | inactive: -13.5%
S=C(Nc1ccc2nc(-c3ccccn3)c(-c3ccccn3)nc2c1)N1CCCCC1 | inconclusive: 39.8 µM [inhibitor, partial curve] | –
O=C(Nc1cccc(Cl)c1)C1C2C=CC3(O2)C1C(=O)N(CCN1CCCCC1)C3C(=O)NC1CCCCC1 (stereo not drawn) | inconclusive: 3.16 µM [inhibitor, full curve, poor fit] | –
COCC(C)NC(=O)c1ccc2nc(-c3ccccc3)c(-c3ccccc3)nc2c1 (stereo not drawn) | inconclusive: 35.5 µM [inhibitor, partial curve] | –

Compound | Potency | activity change, negative = inhibition
CCOc1ccc(NC(c2ccccn2)c2oc(CO)cc(=O)c2O)cc1 (stereo not drawn) | inconclusive: 1.58 µM [inhibitor, full curve, poor fit] | –
O=C(c1ccco1)C(O)c1ccco1 (stereo not drawn) | inconclusive: 35.5 µM [inhibitor, partial curve, poor fit] | –
COc1ccccc1NC(=O)C1=C(C)Nc2nc(-c3ccco3)nn2C1c1cccc(C)c1 (stereo not drawn) | inconclusive: 44.7 µM [inhibitor, partial curve, poor fit] | –
CCN1CCN(Cc2c(O)ccc3c2O/C(=C\C=C\c2ccccc2)C3=O)CC1 | inconclusive: 15.8 µM [inhibitor, partial curve] | –
CCOC(=O)c1c(C)oc2c1cc(NS(=O)(=O)c1ccc(C(=O)O)cc1)c1ccccc12 | inconclusive: 44.7 µM [inhibitor, partial curve, poor fit] | –
Cc1ccc(C(C)C)c(OCC(=O)Nc2c(C(=O)c3ccccc3)oc3ccccc23)c1 | inconclusive: 0.891 µM [inhibitor, full curve, poor fit] | –
COC(=O)C1=C(C)N(Cc2ccccc2)C(=NCCCCO)N[C@H]1c1cccc(C(F)(F)F)c1 | inconclusive: 6.31 µM [inhibitor, partial curve] | –
Cc1cccc(/C=C/c2onc(C)c2S(=O)(=O)N2CCC(C(=O)N3CCC(C)CC3)CC2)c1 | inconclusive: 12.6 µM [inhibitor, partial curve] | –
O=C(O)c1cccc(Cn2c(Cl)c(/C=N/Nc3ccccc3)sc2=O)c1 | – | inactive: -15.3%
CCc1ccc(-c2nn(CC(=O)NC3CCCC3)c3c2cnc2ccc(C)cc23)cc1 | – | inactive: -9.95%
Cc1cccn2c(=O)c(/C=C(\C#N)c3nc4ccccc4n3C)c(Oc3ccc(Br)cc3)nc12 | inconclusive: 0.891 µM [inhibitor, full curve, poor fit] | –
COc1cccc2c1OCC(CN1CCN(CCC(C)C)C(CCO)C1)=C2 (stereo not drawn) | – | inactive: -3.42%
CCOc1ccccc1NC(=O)c1c(C)cc(C)nc1SCC(=O)c1cccc(OC)c1 | – | inactive: -16.1%
CCOc1ccc(NC(=O)c2ccc(CC)s2)c([N+](=O)[O-])c1 | inconclusive: 0.282 µM [inhibitor, full curve, poor fit] | –
O=C(Nc1cccc(C(=O)N2CCCCC2)c1)c1nsc2ccccc12 | – | inactive: -18.4%
CCOC(=O)c1ccc(OCC2c3cc(OC)c(OC)cc3CCN2C(=O)Cc2ccc(F)cc2)cc1 (stereo not drawn) | inconclusive: 28.2 µM [inhibitor, partial curve] | –
CCCC(=O)OCCNc1cc(SCCC(=O)OC)c2nonc2c1[N+](=O)[O-] | – | inactive: -18.5%
CCc1nnc(NS(=O)(=O)c2ccc(Nc3ccc([N+](=O)[O-])c4nonc34)cc2)s1 | inconclusive: 35.5 µM [inhibitor, partial curve] | –
Cc1ccc2[nH]c(=O)c(CN(c3cccc(C)c3C)S(=O)(=O)c3ccccc3)cc2c1 | inconclusive: 79.4 µM [inhibitor, partial curve, poor fit] | –
O=[N+]([O-])c1cc(C(F)(F)F)cc([N+](=O)[O-])c1NCCCN1CCOCC1 | inconclusive: 6.31 µM [inhibitor, single point] | –
CC(=Nc1ccc(Br)cc1)c1sc2ccccc2c1O | inconclusive: 39.8 µM [inhibitor, partial curve] | –

A second format for part of the listing above.
Compound,Potency,"activity change, negative = inhibition"
COC(=O)C1=C(C)N(Cc2ccccc2)C(=NCCCCO)N[C@H]1c1cccc(C(F)(F)F)c1,"inconclusive: 6.31 µM [inhibitor, partial curve]",–
Cc1cccc(/C=C/c2onc(C)c2S(=O)(=O)N2CCC(C(=O)N3CCC(C)CC3)CC2)c1,"inconclusive: 12.6 µM [inhibitor, partial curve]",–

Whole records as entered above. Order of values: Potency	activity change, negative = inhibition
CCN1CCN(Cc2c(O)ccc3c2O/C(=C\C=C\c2ccccc2)C3=O)CC1 is listed with inconclusive: 15.8 µM [inhibitor, partial curve]	–
CCOC(=O)c1ccc(OCC2c3cc(OC)c(OC)cc3CCN2C(=O)Cc2ccc(F)cc2)cc1 (stereo not drawn) is listed with inconclusive: 28.2 µM [inhibitor, partial curve]	–
